Measured values as given in patent publication US20230242666A1.
Results are given in words; binding and its absence hold for the method and conditions named. Some binding calls cover weakened binding; strength is not graded here.

Amino acid sequences for entries named in this document (tags omitted). Residues count along the entry.
UniProt Q6UVK1, residues 30-2322: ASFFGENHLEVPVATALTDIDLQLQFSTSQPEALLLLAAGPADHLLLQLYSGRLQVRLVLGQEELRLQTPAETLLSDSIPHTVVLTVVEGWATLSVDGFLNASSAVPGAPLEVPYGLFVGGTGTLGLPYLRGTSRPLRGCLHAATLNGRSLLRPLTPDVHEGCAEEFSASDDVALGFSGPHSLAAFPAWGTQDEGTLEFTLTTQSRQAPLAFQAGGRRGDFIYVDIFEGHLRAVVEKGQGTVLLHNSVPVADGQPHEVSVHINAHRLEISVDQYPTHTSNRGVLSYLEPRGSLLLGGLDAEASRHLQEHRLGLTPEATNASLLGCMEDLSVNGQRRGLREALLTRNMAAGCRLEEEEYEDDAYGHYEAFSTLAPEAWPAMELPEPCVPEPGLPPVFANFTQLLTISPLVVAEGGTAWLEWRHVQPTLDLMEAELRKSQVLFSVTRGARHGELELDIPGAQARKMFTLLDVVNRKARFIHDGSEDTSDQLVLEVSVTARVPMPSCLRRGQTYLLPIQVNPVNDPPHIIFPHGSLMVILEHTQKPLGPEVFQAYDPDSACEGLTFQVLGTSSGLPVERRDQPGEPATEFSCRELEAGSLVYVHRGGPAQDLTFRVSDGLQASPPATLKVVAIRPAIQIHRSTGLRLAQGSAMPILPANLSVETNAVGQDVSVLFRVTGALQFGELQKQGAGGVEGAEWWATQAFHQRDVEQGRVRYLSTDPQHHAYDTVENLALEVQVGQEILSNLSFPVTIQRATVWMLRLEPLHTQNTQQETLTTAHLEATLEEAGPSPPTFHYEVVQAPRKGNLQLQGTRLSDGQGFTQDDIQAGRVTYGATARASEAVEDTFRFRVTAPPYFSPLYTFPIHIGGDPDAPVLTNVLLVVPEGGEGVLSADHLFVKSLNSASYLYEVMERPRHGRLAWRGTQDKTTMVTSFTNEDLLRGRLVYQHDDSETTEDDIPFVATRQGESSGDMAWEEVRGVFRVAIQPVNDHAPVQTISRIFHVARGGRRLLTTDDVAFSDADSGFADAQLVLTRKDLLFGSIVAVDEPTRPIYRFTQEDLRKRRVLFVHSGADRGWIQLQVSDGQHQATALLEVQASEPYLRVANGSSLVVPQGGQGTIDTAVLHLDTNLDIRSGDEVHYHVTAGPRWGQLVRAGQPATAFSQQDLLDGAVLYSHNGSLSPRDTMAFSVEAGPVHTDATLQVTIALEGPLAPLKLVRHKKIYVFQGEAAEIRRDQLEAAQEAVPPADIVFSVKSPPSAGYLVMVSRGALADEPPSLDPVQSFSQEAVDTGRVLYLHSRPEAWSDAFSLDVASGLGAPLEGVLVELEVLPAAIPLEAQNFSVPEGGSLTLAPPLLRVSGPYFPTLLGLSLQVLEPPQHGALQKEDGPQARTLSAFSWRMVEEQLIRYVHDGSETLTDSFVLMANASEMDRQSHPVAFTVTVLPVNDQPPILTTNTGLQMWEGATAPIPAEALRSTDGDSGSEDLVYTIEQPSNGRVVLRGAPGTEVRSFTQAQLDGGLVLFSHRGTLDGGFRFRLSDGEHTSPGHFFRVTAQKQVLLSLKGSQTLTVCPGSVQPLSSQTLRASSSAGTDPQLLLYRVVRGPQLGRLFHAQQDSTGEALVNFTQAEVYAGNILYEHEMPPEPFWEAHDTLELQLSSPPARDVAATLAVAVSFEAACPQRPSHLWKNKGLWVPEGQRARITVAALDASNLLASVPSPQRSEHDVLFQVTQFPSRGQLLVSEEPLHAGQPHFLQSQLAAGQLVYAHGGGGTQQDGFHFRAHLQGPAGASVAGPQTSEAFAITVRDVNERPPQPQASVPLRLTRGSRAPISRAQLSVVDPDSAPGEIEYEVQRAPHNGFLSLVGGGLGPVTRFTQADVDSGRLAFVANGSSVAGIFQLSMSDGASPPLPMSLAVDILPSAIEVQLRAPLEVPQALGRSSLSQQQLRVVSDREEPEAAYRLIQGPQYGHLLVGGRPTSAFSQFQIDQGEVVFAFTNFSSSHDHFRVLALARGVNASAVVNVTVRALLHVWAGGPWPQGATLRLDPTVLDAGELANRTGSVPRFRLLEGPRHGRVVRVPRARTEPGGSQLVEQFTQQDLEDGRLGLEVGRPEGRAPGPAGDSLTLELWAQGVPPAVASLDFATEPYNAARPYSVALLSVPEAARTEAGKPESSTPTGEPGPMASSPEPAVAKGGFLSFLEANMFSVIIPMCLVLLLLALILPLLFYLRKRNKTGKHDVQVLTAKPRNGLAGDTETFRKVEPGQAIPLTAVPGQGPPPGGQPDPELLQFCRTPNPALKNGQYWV

Biological target: chondroitin sulfate proteoglycan 4 (CSPG4) (human) (UniProt Q6UVK1)
Experiment: flow cytometry of soluble scFv on CSPG4+ MDA-MB-231 cells (Protein L-biotin, streptavidin-PE)

B1: humanized scFv h763.74(#2) (scFv)
scFv: MDIKLTQSPSILSASVGDRVIITCRASQTIYKNLHWYQQKPHRSPRLLIKYGSDSISGIPSRFSGSGSGTEYTLTISSLQPDDFAIYYCLQGYSTPWTFGGGTKLTVLGGGGGSGGGGSGGGGSGGGGSQVQLVESGGGLVQPGGSLRLSCTASGYTFTDYSMHWVRKTPGKGLKWVGWINTATGEPTYADDFKGRFTISLDTSKNTVYLQMNSLRAEDTATYFCFSYYDYWGQGTTVTVSS
B1 was tested, and the binding was “binds”.

B2: humanized scFv h763.74(#5) (scFv)
scFv: MEIVMTQSPSTLSASVGDRVIITCRASQTIYKNLHWYQQKPGKSPKLLIKYGSDSISGVPSRFSGSGSGTEYTLTISSLQPDDFATYYCLQGYSTPWTFGQGTKLTVLGGGGGSGGGGSGGGGSGGGGSQVQLVESGGGLVQPGGSLRLSCTASGYTFTDYSMHWVRKAPGKGLEWVGWINTATGEPTYADDFKGRFTISLDTSKNTVYLQMNSLRAEDTAVYFCASYYDYWGQGTLVTVSS
For B2, the binding was “binds”.
